From patent US9770482B2, “Targeting the EGFR-SGLT1 interaction for cancer therapy” (The University of Houston System, priority 2013, dated 2017) come the findings set out here.

In this experiment the target is T1, flag tagged human SGLT1 (sodium/glucose co-transporter 1) (human) (UniProt P13866).
T1 sequence (looked up): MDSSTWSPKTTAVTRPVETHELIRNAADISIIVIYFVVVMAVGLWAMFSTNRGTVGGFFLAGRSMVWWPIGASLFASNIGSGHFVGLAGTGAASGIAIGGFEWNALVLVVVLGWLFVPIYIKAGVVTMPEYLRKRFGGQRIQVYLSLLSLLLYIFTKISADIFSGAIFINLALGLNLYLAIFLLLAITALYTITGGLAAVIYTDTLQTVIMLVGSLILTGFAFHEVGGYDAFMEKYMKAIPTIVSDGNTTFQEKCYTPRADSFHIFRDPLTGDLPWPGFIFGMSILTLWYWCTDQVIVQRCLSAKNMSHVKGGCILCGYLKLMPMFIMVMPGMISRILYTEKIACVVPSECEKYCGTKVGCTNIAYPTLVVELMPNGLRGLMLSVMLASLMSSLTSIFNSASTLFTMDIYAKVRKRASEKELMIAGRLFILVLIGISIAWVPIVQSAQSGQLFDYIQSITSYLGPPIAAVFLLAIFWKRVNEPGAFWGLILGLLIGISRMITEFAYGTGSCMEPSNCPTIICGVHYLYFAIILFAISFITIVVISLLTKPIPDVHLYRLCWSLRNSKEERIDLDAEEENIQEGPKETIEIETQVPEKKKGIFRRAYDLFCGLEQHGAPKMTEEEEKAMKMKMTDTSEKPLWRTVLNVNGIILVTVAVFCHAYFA
In words: co-IP of flag tagged SGLT1, Western blot for HA tagged truncated EGFRs that include the TM domain.

These are yes or no findings as the source states them, for the method shown. Binding seen in cells or lysates may run through a third protein. Binding can be weak; no strength is given. Tags and fused reporters may be left off the sequences shown.

Regarding “EGFR with extracellular domain deletion (1-644aa), HA tagged (receptor)”, the binding entry was “binds”.
